Results on 1 sequence are retold here after article PMC9976904.

Protein sequences, listed by entry. Tags and fused reporters are not part of them.
UniProt P60842, whole entry E183Q: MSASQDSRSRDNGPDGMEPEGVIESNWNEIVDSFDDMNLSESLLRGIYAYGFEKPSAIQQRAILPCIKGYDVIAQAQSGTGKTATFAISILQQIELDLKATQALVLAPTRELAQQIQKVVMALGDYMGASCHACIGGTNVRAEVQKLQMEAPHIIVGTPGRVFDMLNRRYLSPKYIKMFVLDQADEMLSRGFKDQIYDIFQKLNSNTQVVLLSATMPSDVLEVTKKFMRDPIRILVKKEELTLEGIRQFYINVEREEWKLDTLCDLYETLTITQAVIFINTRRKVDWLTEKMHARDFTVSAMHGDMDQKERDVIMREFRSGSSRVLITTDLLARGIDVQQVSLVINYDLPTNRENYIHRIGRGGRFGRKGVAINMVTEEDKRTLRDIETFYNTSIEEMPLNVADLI

For data set [1], the target named is eIF4A1 DQAD E183Q (human) (UniProt P60842). Nature of the data set: RNA-binding assay. Particulars: no silvestrol, RNA-binding deficiency stated; 20 mM HEPES/KOH pH 7.5, 100 mM KCl, 1 mM TCEP, 1% DMSO, 2 mM AMPPNP/MgCl2, 25 C, 60 min; recombinant protein; protein details: N-terminal 6xHis-SUMO, cleaved; label: FAM or 5' Dy780.
In data set [2] the test system is eIF4A1 + eIF4G-MC. The data set is described as follows: fluorescence anisotropy. As to conditions: 0.5 uM eIF4G-MC, AMPPNP, sequence differences almost abolished; 20 mM HEPES/KOH pH 7.5, 100 mM KCl, 1 mM TCEP, 1% DMSO, 2 mM AMPPNP/MgCl2, 25 C, 60 min; recombinant protein; label: FAM or 5' Dy780. (Fluorescence polarisation rises when a labelled molecule tumbles more slowly, as on binding a larger partner.)

Data set [3] relates to eIF4A1 + eIF4H. Nature of the data set: fluorescence anisotropy. Particulars: 0.5 uM eIF4H, AMPPNP, sequence differences almost abolished; 20 mM HEPES/KOH pH 7.5, 100 mM KCl, 1 mM TCEP, 1% DMSO, 2 mM AMPPNP/MgCl2, 25 C, 60 min; recombinant protein; label: FAM or 5' Dy780.

Construct, isoform or probe ends are uncertain for at least one entry. For part of these data: Weaker means in comparison with the reference protein, sequence or condition of that experiment. For part of these data: At least one verdict rests on a figure or table, not on a statement of the authors.

For the sequence AGAGAGAGAGAGAGAGAGAG [AG-RNA (20 nt)], the binding result is on record as “binds more weakly” in data set [1], “binds” in data set [2] and “binds” in data set [3].
